From publication PMC10774338
Changes are numbered by the printed parent chain. No constants are given. Whether binding was seen depends on the method and setting. Binding seen in cells or lysates may run through a third protein. A result given as binding can be weak or reduced; the word gives no strength. Tags and fused reporters may be left off the sequences shown.

Key:
Assay in all cases: co-IP; GFP-WDR44 wild-type or variants transiently expressed in RPE1 WDR44 KO F4 cells for 48 h; GFP proteins immunoprecipitated from lysate, blots probed with GFP, RAB11 and VAPA antibodies
[1] = biological target: T1, GFP-tagged WDR44 D648G (human) (UniProt Q5JSH3)
T1 sequence: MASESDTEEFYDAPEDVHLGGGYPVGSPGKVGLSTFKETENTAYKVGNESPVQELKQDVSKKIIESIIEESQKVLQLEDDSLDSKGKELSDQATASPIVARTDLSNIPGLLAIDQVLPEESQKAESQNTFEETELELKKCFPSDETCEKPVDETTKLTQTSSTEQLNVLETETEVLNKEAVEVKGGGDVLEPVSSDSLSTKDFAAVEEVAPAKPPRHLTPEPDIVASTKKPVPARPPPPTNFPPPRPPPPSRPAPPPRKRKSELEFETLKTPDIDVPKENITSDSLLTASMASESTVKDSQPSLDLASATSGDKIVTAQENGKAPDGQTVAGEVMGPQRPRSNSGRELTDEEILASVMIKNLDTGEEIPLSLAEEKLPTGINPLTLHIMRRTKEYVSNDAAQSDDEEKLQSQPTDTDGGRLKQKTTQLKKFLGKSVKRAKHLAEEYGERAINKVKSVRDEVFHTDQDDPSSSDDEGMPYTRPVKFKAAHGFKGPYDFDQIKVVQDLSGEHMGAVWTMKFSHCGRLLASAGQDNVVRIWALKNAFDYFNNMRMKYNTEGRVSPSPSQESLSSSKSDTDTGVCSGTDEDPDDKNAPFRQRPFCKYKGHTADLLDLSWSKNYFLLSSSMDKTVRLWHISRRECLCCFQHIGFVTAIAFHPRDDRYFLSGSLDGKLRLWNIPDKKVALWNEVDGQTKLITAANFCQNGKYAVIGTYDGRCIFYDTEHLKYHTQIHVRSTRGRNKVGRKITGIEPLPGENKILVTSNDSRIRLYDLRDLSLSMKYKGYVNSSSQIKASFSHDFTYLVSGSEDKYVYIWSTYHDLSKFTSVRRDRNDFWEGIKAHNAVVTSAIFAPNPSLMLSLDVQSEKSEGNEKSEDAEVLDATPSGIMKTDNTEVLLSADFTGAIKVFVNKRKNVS

[2] = biological target: T2, GFP-tagged WDR44 H839R (human) (UniProt Q5JSH3)
T2 sequence: T1 sequence with G648D, H839R

[3] = biological target: T3, GFP-tagged WDR44 S764F (human) (UniProt Q5JSH3)
T3 sequence: T1 sequence with G648D, S764F

Measured: binding

Endogenous RAB11
binds: [1] | [2] | [3]
